Screening data

The results are deposited in PubChem (AID504749; NCATS, 2011).

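A panel of P. falciparum strains inside erythrocytes is exposed to compounds for three days, then a DNA-binding dye reports the amount of parasite DNA. Each compound was titrated across a series from about 0.000037 to 29 µM. The number is the fitted AC50, the concentration giving a half-maximal change in signal; a lower value means higher potency, whether the curve shows a decrease or an increase. Calls follow the curve class and fit quality: every row here is inconclusive, covering signal-raising curves and weak, poorly fitted, partial or highest-dose-only inhibition curves.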

Values are in nM. All entries here are filed as inconclusive. Only part of the assay is shown, chiefly results filed as inconclusive. Potencies fitted to partial, single-point or poorly fitting curves are rough. Some entries filed as inconclusive have a full curve.

compound	setting	fitted potency (nM)	curve as filed
NC(=O)C(c1ccccc1)(c1ccccc1)[C@@H]1CCN(CCc2ccc3c(c2)CCO3)C1	ECU	7943	inhibitor, single point
NC(=O)C(c1ccccc1)(c1ccccc1)[C@@H]1CCN(CCc2ccc3c(c2)CCO3)C1	CP286	11220	inhibitor, partial curve
NC(=O)C(c1ccccc1)(c1ccccc1)[C@@H]1CCN(CCc2ccc3c(c2)CCO3)C1	CP201	10690	inhibitor, partial curve
NC(=O)C(c1ccccc1)(c1ccccc1)[C@@H]1CCN(CCc2ccc3c(c2)CCO3)C1	CP252	10000	inhibitor, single point
NC(=O)C(c1ccccc1)(c1ccccc1)[C@@H]1CCN(CCc2ccc3c(c2)CCO3)C1	CP335	6012	inhibitor, partial curve
NC(=O)C(c1ccccc1)(c1ccccc1)[C@@H]1CCN(CCc2ccc3c(c2)CCO3)C1	CP215	8492	inhibitor, single point
NC(=O)C(c1ccccc1)(c1ccccc1)[C@@H]1CCN(CCc2ccc3c(c2)CCO3)C1	CP238	11220	inhibitor, single point
NC(=O)C(c1ccccc1)(c1ccccc1)[C@@H]1CCN(CCc2ccc3c(c2)CCO3)C1	CP247	2512	inhibitor, full curve
NC(=O)C(c1ccccc1)(c1ccccc1)[C@@H]1CCN(CCc2ccc3c(c2)CCO3)C1	P94_40	14125	inhibitor, single point
NC(=O)C(c1ccccc1)(c1ccccc1)[C@@H]1CCN(CCc2ccc3c(c2)CCO3)C1	CP297	11995	inhibitor, partial curve, poor fit
NC(=O)C(c1ccccc1)(c1ccccc1)[C@@H]1CCN(CCc2ccc3c(c2)CCO3)C1	TAB165	6310	inhibitor, partial curve
NC(=O)C(c1ccccc1)(c1ccccc1)[C@@H]1CCN(CCc2ccc3c(c2)CCO3)C1	AA1029	11220	inhibitor, partial curve
NC(=O)C(c1ccccc1)(c1ccccc1)[C@@H]1CCN(CCc2ccc3c(c2)CCO3)C1	CP203	11995	inhibitor, partial curve, poor fit
NC(=O)C(c1ccccc1)(c1ccccc1)[C@@H]1CCN(CCc2ccc3c(c2)CCO3)C1	CP329	8492	inhibitor, partial curve
CC1CCc2c(N3CCC(O)CC3)c(F)cc3c(=O)c(C(=O)O)cn1c23 (centres unmarked)	DIV14	16944	inhibitor, partial curve, poor fit
CC1CCc2c(N3CCC(O)CC3)c(F)cc3c(=O)c(C(=O)O)cn1c23 (centres unmarked)	AS120	17782	inhibitor, single point
CC1CCc2c(N3CCC(O)CC3)c(F)cc3c(=O)c(C(=O)O)cn1c23 (centres unmarked)	P93_24	17782	inhibitor, single point
CC1CCc2c(N3CCC(O)CC3)c(F)cc3c(=O)c(C(=O)O)cn1c23 (centres unmarked)	TAB165	17782	inhibitor, single point
CC1CCc2c(N3CCC(O)CC3)c(F)cc3c(=O)c(C(=O)O)cn1c23 (centres unmarked)	CP191	17782	inhibitor, single point
CC1CCc2c(N3CCC(O)CC3)c(F)cc3c(=O)c(C(=O)O)cn1c23 (centres unmarked)	CP268	10690	inhibitor, single point
CC1CCc2c(N3CCC(O)CC3)c(F)cc3c(=O)c(C(=O)O)cn1c23 (centres unmarked)	CP238	11220	inhibitor, single point
CC1CCc2c(N3CCC(O)CC3)c(F)cc3c(=O)c(C(=O)O)cn1c23 (centres unmarked)	ATS189	7080	inhibitor, partial curve
CC1CCc2c(N3CCC(O)CC3)c(F)cc3c(=O)c(C(=O)O)cn1c23 (centres unmarked)	CP215	19011	inhibitor, single point
CC1CCc2c(N3CCC(O)CC3)c(F)cc3c(=O)c(C(=O)O)cn1c23 (centres unmarked)	W2	13459	inhibitor, single point
CC1CCc2c(N3CCC(O)CC3)c(F)cc3c(=O)c(C(=O)O)cn1c23 (centres unmarked)	CP291	19011	inhibitor, single point
CC1CCc2c(N3CCC(O)CC3)c(F)cc3c(=O)c(C(=O)O)cn1c23 (centres unmarked)	ICS	11220	inhibitor, single point
CC1CCc2c(N3CCC(O)CC3)c(F)cc3c(=O)c(C(=O)O)cn1c23 (centres unmarked)	P94_40	17782	inhibitor, single point
CC1CCc2c(N3CCC(O)CC3)c(F)cc3c(=O)c(C(=O)O)cn1c23 (centres unmarked)	CP335	13459	inhibitor, single point
CC1CCc2c(N3CCC(O)CC3)c(F)cc3c(=O)c(C(=O)O)cn1c23 (centres unmarked)	CP203	19011	inhibitor, single point
CC1CCc2c(N3CCC(O)CC3)c(F)cc3c(=O)c(C(=O)O)cn1c23 (centres unmarked)	CP286	7943	inhibitor, partial curve
CC1CCc2c(N3CCC(O)CC3)c(F)cc3c(=O)c(C(=O)O)cn1c23 (centres unmarked)	SC27B	11220	inhibitor, single point
CC1CCc2c(N3CCC(O)CC3)c(F)cc3c(=O)c(C(=O)O)cn1c23 (centres unmarked)	AA1029	11220	inhibitor, single point
CC1CCc2c(N3CCC(O)CC3)c(F)cc3c(=O)c(C(=O)O)cn1c23 (centres unmarked)	CP247	17782	inhibitor, single point
CC1CCc2c(N3CCC(O)CC3)c(F)cc3c(=O)c(C(=O)O)cn1c23 (centres unmarked)	CP217	17782	inhibitor, single point
CC1CCc2c(N3CCC(O)CC3)c(F)cc3c(=O)c(C(=O)O)cn1c23 (centres unmarked)	DFO2036	11220	inhibitor, single point
CC1CCc2c(N3CCC(O)CC3)c(F)cc3c(=O)c(C(=O)O)cn1c23 (centres unmarked)	GB4	6746	inhibitor, partial curve
CC1CCc2c(N3CCC(O)CC3)c(F)cc3c(=O)c(C(=O)O)cn1c23 (centres unmarked)	CP305	16944	inhibitor, partial curve, poor fit
CC1CCc2c(N3CCC(O)CC3)c(F)cc3c(=O)c(C(=O)O)cn1c23 (centres unmarked)	TAB109	17782	inhibitor, single point
CC1CCc2c(N3CCC(O)CC3)c(F)cc3c(=O)c(C(=O)O)cn1c23 (centres unmarked)	CP237	8912	inhibitor, partial curve
CC1CCc2c(N3CCC(O)CC3)c(F)cc3c(=O)c(C(=O)O)cn1c23 (centres unmarked)	CP252	17782	inhibitor, single point